In US12234240B2, “Substituted imidazo[5,1-d][1,2,3,5]tetrazines for the treatment of cancer” (The Board of Trustees of the University of Illinois, priority 2018, dated 2025):
Some entries share one result that the patent states for a list of compounds.

Tested on: human GBM cell lines
Test: Viability in panel of human GBM cell lines
Assay type: cell-based
Conditions: all tested cell lines, inactive
Protocol: Anticancer activity of C8 substituted imidazotetrazines. With a suite of imidazotetrazines in hand, each compound was evaluated against a panel of human GBM cell lines (Table 1a, Table 1b).

In the case of `Cn1nnc2c(C(=O)O)ncn2c1=O` [Compound 3], the “fold less potent than TMZ” value was greater than 7 fold.
